From US20230132366A9, “METHODS FOR TREATING DYSREGULATED LIPID METABOLISM” (DENALI THERAPEUTICS INC., priority 2018, published 2023)
For at least one compound, name, drawing or mass did not settle the structure.

By UniProt entry, the sequences of proteins in these tests, tags left out. Residues count along the entry.
UniProt Q9NZC2, 19-230: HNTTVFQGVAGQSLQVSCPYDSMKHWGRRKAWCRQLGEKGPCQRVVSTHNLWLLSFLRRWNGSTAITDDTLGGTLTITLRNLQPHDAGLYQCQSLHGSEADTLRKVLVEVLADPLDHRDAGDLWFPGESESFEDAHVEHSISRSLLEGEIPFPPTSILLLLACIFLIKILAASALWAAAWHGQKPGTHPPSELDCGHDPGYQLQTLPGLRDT

Target: TREM2 (Homo sapiens, UniProt Q9NZC2)
Assay: pSYK AlphaLISA in TREM2/DAP12-expressing stable HEK293 cells
Assay type: cell-based
Set-up: expressed in transfected cells
Details: conclusion from pSYK and SPR studies
Description: 70 molar percent DOPC (1,2-dioleoyl-sn-glycero-3-phosphocholine, Avanti Polar Lipids) and 30 molar percent of one test lipid were combined in chloroform in a glass vial and dried under a stream of N2 gas for 1-2h, or until completely dry. Test lipids included sulfatide (Avanti), POPS (Avanti), SM (Avanti), PI (Avanti), GalCer (Avanti), PE (Echelon Biosciences), and free cholesterol (Echelon Biosciences). The lipid mixture was re-suspended in HBSS (1-2 mg/mL final lipid concentration) and vortexed for 2-3 min. Subsequently, the lipid suspension was bath sonicated for 10 minutes. For surface plasmon resonance experiments, liposomes were extruded 10 times using an Avanti mini-extruder constructed with one 100 nm pore size membrane to form small unilamellar vesicles.
HEK293 cells were transfected with a pBudCE4.1 Mammalian Expression Vector (ThermoFisher) expressing wildtype human TREM2 and DAP12, and DAP12 alone. Stable expressing clones were selected and the cell surface TREM2 expression was evaluated by flow cytometry with APC-conjugated rat-anti-human/mouse-TREM2 monoclonal (R&D MAB17291). […] The clones stably expressing DAP12 were analyzed by Western blot.
Activation of TREM2-dependent pSYK signaling was measured using a commercial AlphaLISA assay (PerkinElmer). […] Plates were read using AlphaLISA settings on a PerkinElmer EnVision plate reader.

SMILES: CC(C)CCC[C@@H](C)[C@H]1CC[C@H]2[C@@H]3CC=C4C[C@@H](O)CC[C@]4(C)[C@H]3CC[C@]12C [cholesterol]
- binding to and signaling via TREM2 (overall conclusion): did not appear to bind and signal via TREM2
